Source: the supplement of paper PMC3353916
Single values of this set are uncertain.

System: Sindbis virus TE/5'2J-GFP
Experiment: percent infected (GFP+ in RFP+ ISG-expressing cells); higher = more infection (less antiviral activity)
Conditions: experiment: primary screen (single well)

Sequence “MGAQLCFEANAKAPREALRFHAEAKGAQVRLDTRGCIAHRRTTFHDGIVFSQRPVRLGERVALRVLREESGWCGGLRVGFTRLDPACVSVPSLPPFLCPDLEEQSPTWAAVLPEGCALTGDLVRFWVDRRGCLFAKVNAGCRLLLREGVPVGAPLWAVMDVYGTTKAIELLDPTASRLPTPMPWDLSNKAVPEPKATPGEECAICFYHAANTRLVPCGHTYFCRYCAWRVFSDTAKCPVCRWQIEAVAPAQGPPALRVEEGS [LINCR]” has a percent infected (BHK/HA-Zeo (control)) of 91.4% and a percent infected (BHK/NZAP-Zeo (ZAP)) of 74.7%.

Work on “MGDTFIRHIALLGFEKRFVPSQHYVYMFLVKWQDLSEKVVYRRFTEIYEFHKTLKEMFPIEAGAINPENRIIPHLPAPKWFDGQRAAENRQGTLTEYCSTLMSLPTKISRCPHLLDFFKVRPDDLKLPTDNQTKKPETYLMPKDGKSTATDITGPIILQTYRAIANYEKTSGSEMALSTGDVVEVVEKSESGWWFCQMKAKRGWIPASFLEPLDSPDETEDPEPNYAGEPYVAIKAYTAVEGDEVSLLEGEAVEVIHKLLDGWWVIRKDDVTGYFPSMYLQKSGQDVSQAQRQIKRGAPPRRSSIRNAHSIHQRSRKRLSQDAYRRNSVRFLQQRRRQARPGPQSPGSPLEEERQTQRSKPQPAVPPRPSADLILNRCSESTKRKLASAV [NCF1]” yielded a percent infected (BHK/HA-Zeo (control)) of 98.2% and a percent infected (BHK/NZAP-Zeo (ZAP)) of 95.2%.

Sequence “MGDWGFLEKLLDQVQEHSTVVGKIWLTVLFIFRILILGLAGESVWGDEQSDFECNTAQPGCTNVCYDQAFPISHIRYWVLQFLFVSTPTLVYLGHVIYLSRREERLRQKEGELRALPAKDPQVERALAAVERQMAKISVAEDGRLRIRGALMGTYVASVLCKSVLEAGFLYGQWRLYGWTMEPVFVCQRAPCPYLVDCFVSRPTEKTIFIIFMLVVGLISLVLNLLELVHLLCRCLSRGMRARQGQDAPPTQGTSSDPYTDQVFFYLPVGQGPSSPPCPTYNGLSSSEQNWANLTTEERLASSRPPLFLDPPPQNGQKPPSRPSSSASKKQYV [GJA4]” has a percent infected (BHK/HA-Zeo (control)) of 98.9% and a percent infected (BHK/NZAP-Zeo (ZAP)) of 98.7%.

For “MGERTLHAAVPTPGYPESESIMMAPICLVENQEEQLTVNSKALEILDKISQPVVVVAIVGLYRTGKSYLMNRLAGKRNGFPLGSTVQSETKGIWMWCVPHLSKPNHTLVLLDTEGLGDVEKSNPKNDSWIFALAVLLSSSFVYNSVSTINHQALEQLHYVTELAELIRAKSCPRPDEAEDSSEFASFFPDFIWTVRDFTLELKLDGNPITEDEYLENALKLIPGKNPKIQNSNMPRECIRHFFRKRKCFVFDRPTNDKQYLNHMDEVPEENLERHFLMQSDNFCSYIFTHAKTKTLREGIIVTGKRLGTLVVTYVDAINSGAVPCLENAVTALAQLENPAAVQRAADHYSQQMAQQLRLPTDTLQELLDVHAACEREAIAVFMEHSFKDENHEFQKKLVDTIEKKKGDFVLQNEEASAKYCQAELKRLSEHLTESILRGIFSVPGGHNLYLEEKKQVEWDYKLVPRKGVKANEVLQNFLQSQVVVEESILQSDKALTAGEKAIAAERAMKEAAEKEQELLREKQKEQQQMMEAQERSFQEYMAQMEKKLEEERENLLREHERLLKHKLKVQEEMLKEEFQKKSEQLNKEINQLKEKIESTKNEQLRLLKILDMASNIMIVTLPGASKLLGVGTKYLGSRI [GBP4]”, the percent infected (BHK/NZAP-Zeo (ZAP)) was 84.4%.

Work on “MGHTRRQGTSPSKCPYLNFFQLLVLAGLSHFCSGVIHVTKEVKEVATLSCGHNVSVEELAQTRIYWQKEKKMVLTMMSGDMNIWPEYKNRTIFDITNNLSIVILALRPSDEGTYECVVLKYEKDAFKREHLAEVTLSVKADFPTPSISDFEIPTSNIRRIICSTSGGFPEPHLSWLENGEELNAINTTVSQDPETELYAVSSKLDFNMTTNHSFMCLIKYGHLRVNQTFNWNTTKQEHFPDNLLPSWAITLISVNGIFVICCLTYCFAPRCRERRRNERLRRESVRPV [CD80]” yielded a percent infected (BHK/HA-Zeo (control)) of 97.2% and a percent infected (BHK/NZAP-Zeo (ZAP)) of 95.5%.

Work on “MGILYSEPICQAAYQNDFGQVWRWVKEDSSYANVQDGFNGDTPLICACRRGHVRIVSFLLRRNANVNLKNQKERTCLHYAVKKKFTFIDYLLIILLMPVLLIGYFLMVSKTKQNEALVRMLLDAGVEVNATDCYGCTALHYACEMKNQSLIPLLLEARADPTIKNKHGESSLDIARRLKFSQIELMLRKAL [ANKRD22]” yielded a percent infected (BHK/HA-Zeo (control)) of 91.5% and a percent infected (BHK/NZAP-Zeo (ZAP)) of 78.8%.

Sequence “MGKKYKNIVLLKGLEVINDYHFRMVKSLLSNDLKLNLKMREEYDKIQIADLMEEKFRGDAGLGKLIKIFEDIPTLEDLAETLKKEKLKVKGPALSRKRKKEVDATSPAPSTSSTVKTEGAEATPGAQKRKKSTKEKAGPKGSKVSEEQTQPPSPAGAGMSTAMGRSPSPKTSLSAPPNSSSTENPKTVAKCQVTPRRNVLQKRPVIVKVLSTTKPFEYETPEMEKKIMFHATVATQTQFFHVKVLNTSLKEKFNGKKIIIISDYLEYDSLLEVNEESTVSEAGPNQTFEVPNKIINRAKETLKIDILHKQASGNIVYGVFMLHKKTVNQKTTIYEIQDDRGKMDVVGTGQCHNIPCEEGDKLQLFCFRLRKKNQMSKLISEMHSFIQIKKKTNPRNNDPKSMKLPQEQRQLPYPSEASTTFPESHLRTPQMPPTTPSSSFFTKKSEDTISKMNDFMRMQILKEGSHFPGPFMTSIGPAESHPHTPQMPPSTPSSSFLTTKSEDTISKMNDFMRMQILKEGSHFPGPFMTSIGPAESHPHTPQMPPSTPSSSFLTTLKPRLKTEPEEVSIEDSAQSDLKEVMVLNATESFVYEPKEQKKMFHATVATENEVFRVKVFNIDLKEKFTPKKIIAIANYVCRNGFLEVYPFTLVADVNADRNMEIPKGLIRSASVTPKINQLCSQTKGSFVNGVFEVHKKNVRGEFTYYEIQDNTGKMEVVVHGRLTTINCEEGDKLKLTCFELAPKSGNTGELRSVIHSHIKVIKTRKNKKDILNPDSSMETSPDFFF [IFI16]” has a percent infected (BHK/NZAP-Zeo (ZAP)) of 95.9%.

With “MGKPARKGCEWKRFLKNNWVLLSTVAAVVLGITTGVLVREHSNLSTLEKFYFAFPGEILMRMLKLIILPLIISSMITGVAALDSNVSGKIGLRAVVYYFCTTLIAVILGIVLVVSIKPGVTQKVGEIARTGSTPEVSTVDAMLDLIRNMFPENLVQACFQQYKTKREEVKPPSDPEMNMTEESFTAVMTTAISKNKTKEYKIVGMYSDGINVLGLIVFCLVFGLVIGKMGEKGQILVDFFNALSDATMKIVQIIMCYMPLGILFLIAGKIIEVEDWEIFRKLGLYMATVLTGLAIHSIVILPLIYFIVVRKNPFRFAMGMAQALLTALMISSSSATLPVTFRCAEENNQVDKRITRFVLPVGATINMDGTALYEAVAAVFIAQLNDLDLGIGQIITISITATSASIGAAGVPQAGLVTMVIVLSAVGLPAEDVTLIIAVDWLLDRFRTMVNVLGDAFGTGIVEKLSKKELEQMDVSSEVNIVNPFALESTILDNEDSDTKKSYVNGGFAVDKSDTISFTQTSQF [SLC1A1]” the percent infected (BHK/HA-Zeo (control)) was 91%.

In the case of “MGKSASKQFHNEVLKAHNEYRQKHGVPPLKLCKNLNREAQQYSEALASTRILKHSPESSRGQCGENLAWASYDQTGKEVADRWYSEIKNYNFQQPGFTSGTGHFTAMVWKNTKKMGVGKASASDGSSFVVARYFPAGNVVNEGFFEENVLPPKK [C9orf19]”, the percent infected (BHK/HA-Zeo (control)) is reported as 97.8% and the percent infected (BHK/NZAP-Zeo (ZAP)) is reported as 94.3%.

“MGLGRVLLFLAVAFPFAPPAAAAEPHSLRYNLMVLSQDGSVQSGFLAEGHLDGQPFLRYDRQKRRAKPQGQWAENVLGAKTWDTETEDLTENGQDLRRTLTHIKDQKGGLHSLQEIRVCEIHEDSSTRGSRHFYYDGELFLSQNLETQESTVPQSSRAQTLAMNVTNFWKEDAMKTKTHYRAMQADCLQKLQRYLKSGVAIRRTVPPMVNVTCSEVSEGNITVTCRASSFYPRNITLTWRQDGVSLSHNTQQWGDVLPDGNGTYQTWVATRIRQGEEQRFTCYMEHSGNHGTHPVPSGKALVLQSQRTDFPYVSAAMPCFVIIIILCVPCCKKKTSAAEGPELVSLQVLDQHPVGTGDHRDAAQLGFQPLMSATGSTGSTEGT [MICB]” gave a percent infected (BHK/HA-Zeo (control)) of 98.7% and a percent infected (BHK/NZAP-Zeo (ZAP)) of 93.9%.

“MGLKLNGRYISLILAVQIAYLVQAVRAAGKCDAVFKGFSDCLLKLGDSMANYPQGLDDKTNIKTVCTYWEDFHSCTVTALTDCQEGAKDMWDKLRKESKNLNIQGSLFELCGSGNGAAGSLLPAFPVLLVSLSAALATWLSF [NRN1]” gave a percent infected (BHK/HA-Zeo (control)) of 91% and a percent infected (BHK/NZAP-Zeo (ZAP)) of 90.8%.
